Structures can show the parent of a compound that is named as a salt. Some of the results follow. Single values are uncertain here, since repeats match poorly.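 Cells: ReNCell VM human fetal ventral-midbrain neural progenitors, differentiated mitogen-free. Blinded raters compared doublecortin-stained (early neurons) or tyrosine hydroxylase-stained (dopaminergic neurons) images with untreated wells, where 0 means no change. After repeats and both raters were averaged, compounds scoring 2 or above became hits for retesting.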

For the first test, the system named is ReNCell VM. As to the kind of experiment: neuronal differentiation score (DCX+ cell fraction vs untreated, manual image score) (score (-3 to 3)); higher = more neuronal differentiation. As to conditions: library: LOPAC; 2 uM; 2 weeks.
In the case of `Clc1cnc(Oc2ccc(Oc3ncc(Cl)cc3Cl)cc2)c(Cl)c1`, the neuronal differentiation score is inactive: 0. Same read-out and setting: in the case of `Cc1cccc(C)c1NC1=NCCCS1` [Xylazine hydrochloride] it was inactive: 0. With `Cc1c(C(=O)c2cccc3ccccc23)c2cccc3c2n1[C@H](CN1CCOCC1)CO3` [( R)-(+)-WIN 55,212-2 mesylate], the neuronal differentiation score is inactive: 0.

With `NC(N)=Nc1ccc2[nH]c3c(c2c1)C[C@@]1(O)[C@H]2Cc4ccc(O)c5c4[C@@]1(CCN2CC1CC1)[C@H]3O5` [Guanidinyl-naltrindole di-trifluoroacetate], the neuronal differentiation score was inactive: 0. On to `N#CC(C#N)=Cc1ccc(O)c(O)c1` [Tyrphostin 23], for which the neuronal differentiation score was inactive: 0.

`NC(Cc1cc(O)c(O)cc1O)C(=O)O` (racemic) [6-Hydroxy-DL-DOPA]: the neuronal differentiation score was inactive: 0. `O=C(OC1CCN(CCCl)CC1)C(c1ccccc1)c1ccccc1` [4-Diphenylacetoxy-N-(2-chloroethyl)piperidine hydrochloride]: the neuronal differentiation score was inactive: 0.

Staying with this test, now noted: library: Natural; 2 uM; 2 weeks.
On to `CC[C@]12C=CCN3CC[C@]4(C(=C(C(=O)OC)C1)Nc1ccccc14)[C@@H]32` [tabersonine], for which the neuronal differentiation score was inactive: 0.

`O[C@H]1[C@H](O)[C@@H](O)CN2CC[C@H](O)[C@H]12` [castanospermine]: the neuronal differentiation score was inactive: 0.

With `C1=C2CCCN[C@H]2[C@@H]2C[C@H]1[C@H]1CCCCN1C2` [aloperine], the neuronal differentiation score was inactive: 0.

The test is the same for the next values; noted with them: library: Prestwick; 2 uM; 2 weeks.
With `CC(=O)O[C@H]1CC[C@@]2(C)C(=CC[C@@H]3[C@@H]2CC[C@]2(C)C(=O)CC[C@@H]32)C1` [Dehydroisoandosterone 3-acetate], the neuronal differentiation score is inactive: 0. On to `C[C@]12CC[C@@H](O)C[C@H]1CC[C@@H]1[C@@H]2CC[C@]2(C)C(=O)CC[C@@H]12` [3-alpha-Hydroxy-5-beta-androstan-17-one], for which the neuronal differentiation score is inactive: 0. `O=C(NCNC(=O)NC1C(=O)NC(=O)N1CO)NC1C(=O)NC(=O)N1CO` (stereo unspecified) [Imidurea]: the neuronal differentiation score is inactive: 0. For `C[C@]12N[C@H](Cc3ccccc31)c1ccccc12` [Dizocilpine maleate], the neuronal differentiation score is inactive: 0.

The test is the same for the next values; noted with them: library: Spectrum; 2 uM; 2 weeks.
As for `O=[N+]([O-])c1ccc([As](=O)(O)O)cc1`, the neuronal differentiation score is inactive: 1.

As for `CC(C)c1c(CN(C)C(C)Cc2ccccc2)n(C)n(-c2ccccc2)c1=O` (stereo unspecified), the neuronal differentiation score is inactive: 0. With `CC(CC(C(N)=O)(c1ccccc1)c1ccccc1)N(C)C` (stereo unspecified), the neuronal differentiation score is inactive: 1.

Consider `C[C@H]1CC[C@]2(NC1)O[C@H]1C[C@H]3[C@@H]4CC[C@H]5C[C@@H](O[C@@H]6O[C@H](CO)[C@H](O[C@@H]7O[C@H](CO)[C@@H](O)[C@H](O[C@@H]8OC[C@@H](O)[C@H](O)[C@H]8O)[C@H]7O[C@@H]7O[C@H](CO)[C@@H](O)[C@H](O)[C@H]7O)[C@H](O)[C@H]6O)CC[C@]5(C)[C@H]4CC[C@]3(C)[C@H]1[C@@H]2C`, for which the neuronal differentiation score was inactive: 0. Take `CC1(C)C(C=C(Cl)Cl)C1C(=O)OC(C#N)c1cccc(Oc2ccccc2)c1` (stereo unspecified): the neuronal differentiation score is inactive: 0. `C[N+]1(C)CCCC(OC(=O)C(O)(c2ccccc2)c2ccccc2)C1` (stereo unspecified): the neuronal differentiation score is inactive: 0. Consider `c1ccc2c(c1)OCC(C1=NCCN1)O2` (stereo unspecified), for which the neuronal differentiation score was inactive: 0. `C[C@@H]1CC[C@@]2(OC1)O[C@H]1[C@@H](O)[C@H]3[C@@H]4CC[C@H]5C[C@@H](O[C@@H]6O[C@H](CO)[C@H](O[C@@H]7O[C@H](CO)[C@@H](O)[C@H](O[C@@H]8OC[C@@H](O)[C@H](O)[C@H]8O)[C@H]7O[C@@H]7O[C@H](CO)[C@H](O)[C@H](O[C@@H]8O[C@H](CO)[C@@H](O)[C@H](O)[C@H]8O)[C@H]7O)[C@H](O)[C@H]6O)[C@H](O)C[C@]5(C)[C@H]4CC[C@]3(C)[C@H]1[C@@H]2C`: the neuronal differentiation score was inactive: 0. Consider `CN1C[C@H](CNC(=O)OCc2ccccc2)C[C@@H]2c3cccc4c3c(cn4C)C[C@H]21`, for which the neuronal differentiation score was inactive: 0. On the same count and under the same terms, under `O=C1CCC[C@@H]2[C@H]3C[C@@H](CN12)[C@@H]1CCCCN1C3.[O-][Cl+3]([O-])([O-])O` stands inactive: 0; under `NCC(CC(=O)O)c1ccc(Cl)cc1` (stereo unspecified), inactive: 1; under `O=c1c(O)c(-c2ccc(O)c(O)c2)oc2c(O)c(O)cc(O)c12`, inactive: 0. On the same count and under the same terms, under `O=C(O)Cc1cnc[nH]1` stands inactive: 0; under `O=C1NC(=O)C(=O)C(=O)N1`, inactive: 0; under `CN1C2CC(=O)CC1C(O)C2` (stereo unspecified), inactive: 0. For `COc1ccc(C[C@H]2NC[C@H](O)[C@H]2OC(C)=O)cc1`, the neuronal differentiation score is inactive: 0.

The test is the same for the next values; noted with them: library: Tocriscreen; 2 uM; 2 weeks.
Consider `Cc1nnc2n1-c1sc(CCC(=O)N3CCOCC3)cc1C(c1ccccc1Cl)=NC2`, for which the neuronal differentiation score is inactive: 0. In the case of `O=C(O)Cc1cccnc1C(=O)O` [Homoquinolinic acid], the neuronal differentiation score is inactive: 0.

Consider `NC1(c2ccccc2Cl)CCCCC1=O` (stereo unspecified) [Norketamine hydrochloride], for which the neuronal differentiation score was inactive: 0. As to `O=Cc1cn(Cc2ccc(Cl)cc2)c2ccccc12` [Oncrasin 1], the neuronal differentiation score is inactive: 0. Consider `C[N+](C)(C)CC#CCN1CCCC1=O` [Oxotremorine M], for which the neuronal differentiation score is inactive: 0.

`NCC(CS(=O)(=O)O)c1ccc(Cl)cc1` (stereo unspecified) [Saclofen]: the neuronal differentiation score was inactive: 0.

Values taken from the supplement of paper PMC4635364.
